Library screening results

Measurements from “University of Dundee, Small-Polar-MMV Screening Library” (2021), ChEMBL document CHEMBL3988442.

Values are the deposited “Percent Effect”, in %. The controls that fix the scale are not given in the record; negative values are as filed. This is an unselected part of the compounds tested. Two or more numbers in one place are separate tests of the same structure; such repeats can differ widely.

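Viability assay of Plasmodium falciparum sporozoites; the read-out is not stated. The concentration is filed as 10 mM, unlikely as a test dose, so the dose is not known. Direction is inferred from retests: higher values go with lower viability. Strong results were mostly tested again. About 34,000 compounds were tested under these conditions; 0.84% (about 280) showed 50% or more at least once.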

CC(=O)N1CCN(C(=O)NCCCN(C)S(C)(=O)=O)CC1 gave -21.64%. With COCCCNc1ncc(-c2cccc(F)c2)c(-c2nccn2C)n1 the screen gave -6.596%. Cc1cc(N)nc(C2(C)CCCN2C(=O)c2cnccn2)n1 (centres undefined) gave 8.187%. COCCn1cc2c(n1)C(CNCc1ccco1)OCC2.O=C(O)C(F)(F)F.O=C(O)C(F)(F)F (centres undefined) read 1.578%. Result for Cc1nc(C(=O)N2CC(C)Sc3ccccc32)cs1 (centres undefined) was -11.68%. O=C(CC1C=CCC1)N1CCc2ncnc(NCc3ccon3)c2CC1 (centres undefined) gave 6.315%. With CC(c1cccnc1)N(C)Cc1csc(-c2ccccn2)n1 (centres undefined) the screen gave -10.98%. For CC(C)c1nc(CN2CCc3onc(-c4cccc(F)c4)c3C2)no1 the result was -24.46%.

With CCCOCC(=O)N1CCCC(c2nnc(CN3CCCCC3)n2C)C1 (centres undefined) the screen gave 21.5%. With Cc1cc(C)n(CCNCc2cc(-c3ccc(F)cc3)c[nH]c2=O)n1 the screen gave 5.073%. COc1cc(N2CC[C@H](O)[C@@H]2Cc2cccnc2)ncn1 read -22.95%. Result for COCc1nc2cc(NCc3ccc(C)o3)ccc2o1 was 19.62%. For Cc1cc(C(F)(F)F)nn1CCCNC(=O)C1CCCO1 (centres undefined) the result was -2.967%. CC(C)S(=O)(=O)NCC1CCCN(C(=O)c2ccc3c(c2)CCC3)C1 (centres undefined) gave -12.66% & -3.896% & -2.954%. With CN(Cc1ccc2c(c1)OCCO2)C(=O)Cn1cccnc1=O the screen gave 13.48%. With COCc1noc(-c2ccc(N(C)Cc3ncccc3C)nc2)n1 the screen gave -6.228%.

CCC1CN(C(=O)c2cccnc2O)CCC(=O)N1Cc1ccccc1 (centres undefined) gave -11.65% & -22.98%. C[C@H]1CN(C(=O)c2ccc[nH]2)C[C@@]12CCN(c1ccsc1)C2=O gave 0.2577%. Cc1noc(C(C)C)c1C(=O)NCc1cccc(CN(C)C)c1 read -3.774%. For Cc1ccccc1N1CCN(C2CCCN(C(=O)CCC(C)C)C2)CC1 (centres undefined) the result was 1.538%. CNc1nc(C2CCCN(C(=O)C3CCCCC3)C2)nc2c1CNCC2 (centres undefined) read -1.356%. With Cn1ccnc1C(=O)N1CCOC(Cc2ccccc2Cl)C1 (centres undefined) the screen gave -4.089%. With O=C(NCCc1ccn(-c2ccccc2)n1)N1CCSCC1 the screen gave 3.707%. Cl.O=C(CCn1c(C(F)(F)F)cc2cccnc21)N1CCOCC1 gave 9.519%.

CNc1nc(C2CCCN2)nc2c1CCN(S(=O)(=O)C1CCCCC1)C2.Cl (centres undefined) gave 7.353%. O=C(c1ccsc1)N1CCC(Nc2cccnn2)CC1 read -2.284%. CNC(=O)C1CCN(C(=O)c2ccn(-c3ccc(F)cc3)n2)CC1 read 0.08354%. With CC(C)n1ccnc1CN1CCCN(C(=O)c2ncccc2O)CC1 the screen gave 3.159%. COc1cc(CN(C)C(=O)NCCNC(=O)C2CC2)ccc1SC read -1.775%. With Cc1ccc(C2(CN3CCN(c4ncccn4)CC3)CCNCC2)nc1 the screen gave -7.607%. COCCCNC(=O)Nc1ncc(-c2cccc(OC)c2)n1CCOC gave -3.542%. With Fc1ccc(C2(NCc3ccccc3)CCOCC2)cc1 the screen gave 5.089%.

With CCCN1CCCN(CCCOc2cccc(C#N)c2)CC1 the screen gave 9.232%. CN1CCC(Oc2ccc(NC(=O)c3cccc(Cl)c3)cc2)CC1 gave 2.954% & 68.92% & -3.348%. COC(=O)C1CCN(C(=O)c2cccc(NS(C)(=O)=O)c2C)CC1 read -13.07%. For CCOC1COC2(CCN(S(=O)(=O)c3cccc(C)c3)CC2)C1 (centres undefined) the result was -13.2%. CCCn1nc2c(cc1=O)CN(CCCN1CCCC1=O)CC2 read -9.44%. O=C(O)C(F)(F)F.[H][C@@]12COC[C@]1([H])[C@@H](OCC(=O)N(C)C)CN2Cc1ccoc1 gave 5.373%. Result for Cc1cnn(CC2CCCN2C(=O)CCc2c(C)nc(C)[nH]c2=O)c1 (centres undefined) was -7.431%. CCC(CC)CN1CCC2(CCC(=O)N2OCc2ccccc2F)CC1 read 12.49%.

With O=C(c1csc(-c2ncccn2)n1)N1CCCC1Cn1cccn1 (centres undefined) the screen gave 3.073%. CCc1nc(C2CCCN2C(=O)C2=COCC2)no1 (centres undefined) gave -7.598%. With CN(C)S(=O)(=O)N1CCN(C(=O)c2ccc3ccn(C)c3c2)CC1 the screen gave 0.3119%. With Cc1cc(C(=O)N2CCCC2)ccc1NCCOCC(F)(F)F the screen gave 7.008%. For CCc1noc(C(C)N2CCN(CCN3CCCC3=O)CC2)n1 (centres undefined) the result was 10.68%. Cc1cc(F)c(S(=O)(=O)NCc2ccnc(N(C)C)n2)cc1F read -1.421%. Cc1cnn(CC2CCCCN2C(=O)Cc2ccc(C#N)cc2)c1 (centres undefined) read -19.23% & -15.46% & -0.5384%. For CCn1ccnc1CN1CCC(CNC(=O)c2ccc(C)nc2)C1 (centres undefined) the result was -5.234%.

For Cc1cccc(CNC(=O)CCc2c(C)nc3cc(O)nn3c2C)n1 the result was -11.13%. For CCCOc1ccc(NC(=O)NCCC(=O)N(C)C)cc1Cl the result was -7.202%. [H][C@@]12CCN(C(=O)c3cc(C)on3)C[C@@]1([H])O[C@H](c1nc(C)cs1)C2 gave 0.1117%. With CSC(C)(C)CNC(=O)NC1CCN(CC2CC2)C1 (centres undefined) the screen gave -3.431%. With CC(C)C(=O)N1CCN(Cc2csc(-c3ccccn3)n2)CC1 the screen gave 63.59% & 62.99% & 41.75%. CCS(=O)(=O)N1CCC(NC(=O)c2cc(C)ccc2O)CC1 read -7.261%. With Cc1nc(CN2CCOCC3(CCN(c4ncccn4)C3)C2)cs1.O=C(O)C(F)(F)F.O=C(O)C(F)(F)F (centres undefined) the screen gave 4.961%. With O=c1[nH]c(NCCO)nc2c1C1(CCCCC1)Cc1ccccc1-2 the screen gave 3.724%.

Cc1nc(C)c(C)c(N(C)CCCc2nccn2C)n1 gave 3.122%. COc1ncccc1CNCc1c(C)nn(C)c1N1CCOCC1 gave -1.667%. Cc1ccc(N2CCN(C(=O)COc3ccccc3)CC2)nn1 read 7.674%.

Repeated from the top, 3 entries:

- CC(=O)N1CCN(C(=O)NCCCN(C)S(C)(=O)=O)CC1 | -21.64%
- COCCCNc1ncc(-c2cccc(F)c2)c(-c2nccn2C)n1 | -6.596%
- Cc1cc(N)nc(C2(C)CCCN2C(=O)c2cnccn2)n1 (centres undefined) | 8.187%